For 39 targets, log2 fold change results are on record in the supplement of paper PMC10849652.

Amino acid sequences for entries named in this document (tags omitted). A change or cut given only in a name is not applied to a line headed by its entry.
UniProt O94763, whole entry, looked up: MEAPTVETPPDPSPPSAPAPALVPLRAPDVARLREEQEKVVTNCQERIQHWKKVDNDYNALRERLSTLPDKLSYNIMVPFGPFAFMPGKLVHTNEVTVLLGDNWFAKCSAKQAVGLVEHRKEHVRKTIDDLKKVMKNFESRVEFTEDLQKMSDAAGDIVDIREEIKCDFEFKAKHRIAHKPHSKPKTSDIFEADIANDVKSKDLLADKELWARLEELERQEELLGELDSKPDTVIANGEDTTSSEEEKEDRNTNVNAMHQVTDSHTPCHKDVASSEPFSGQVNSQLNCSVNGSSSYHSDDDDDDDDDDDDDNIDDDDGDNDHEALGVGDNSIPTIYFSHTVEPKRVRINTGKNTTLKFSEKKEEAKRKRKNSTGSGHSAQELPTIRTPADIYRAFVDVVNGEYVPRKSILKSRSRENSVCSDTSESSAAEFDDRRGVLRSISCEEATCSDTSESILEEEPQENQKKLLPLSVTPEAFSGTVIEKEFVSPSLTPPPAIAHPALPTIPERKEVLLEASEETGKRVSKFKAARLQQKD
UniProt P40818: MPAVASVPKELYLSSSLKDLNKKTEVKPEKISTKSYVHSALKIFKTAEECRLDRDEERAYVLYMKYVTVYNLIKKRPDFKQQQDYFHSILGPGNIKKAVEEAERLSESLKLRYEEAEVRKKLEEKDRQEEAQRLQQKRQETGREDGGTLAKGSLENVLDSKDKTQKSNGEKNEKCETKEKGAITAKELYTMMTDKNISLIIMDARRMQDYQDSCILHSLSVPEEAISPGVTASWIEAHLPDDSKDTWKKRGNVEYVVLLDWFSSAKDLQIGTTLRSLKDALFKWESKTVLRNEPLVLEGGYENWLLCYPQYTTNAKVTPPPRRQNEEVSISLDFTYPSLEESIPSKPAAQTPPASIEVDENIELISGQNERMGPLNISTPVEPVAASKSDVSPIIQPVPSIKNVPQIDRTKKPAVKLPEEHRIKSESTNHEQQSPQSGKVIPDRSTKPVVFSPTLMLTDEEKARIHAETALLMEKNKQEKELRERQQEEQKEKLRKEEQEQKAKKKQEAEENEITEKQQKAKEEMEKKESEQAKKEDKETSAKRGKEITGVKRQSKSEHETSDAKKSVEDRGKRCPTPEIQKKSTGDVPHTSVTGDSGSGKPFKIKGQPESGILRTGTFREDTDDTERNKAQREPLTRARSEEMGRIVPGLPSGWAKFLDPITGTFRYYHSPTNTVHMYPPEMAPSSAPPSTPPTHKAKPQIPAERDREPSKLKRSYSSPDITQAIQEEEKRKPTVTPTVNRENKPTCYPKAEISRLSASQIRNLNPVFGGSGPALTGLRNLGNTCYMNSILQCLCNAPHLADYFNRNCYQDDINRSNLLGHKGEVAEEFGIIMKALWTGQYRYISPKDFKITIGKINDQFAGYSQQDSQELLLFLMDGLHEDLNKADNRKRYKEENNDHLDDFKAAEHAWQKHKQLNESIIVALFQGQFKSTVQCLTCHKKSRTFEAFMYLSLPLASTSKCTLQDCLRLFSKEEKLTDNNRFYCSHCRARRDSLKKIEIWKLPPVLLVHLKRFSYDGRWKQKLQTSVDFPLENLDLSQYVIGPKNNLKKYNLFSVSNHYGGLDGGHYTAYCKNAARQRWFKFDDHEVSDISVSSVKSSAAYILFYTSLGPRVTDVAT
UniProt P47985: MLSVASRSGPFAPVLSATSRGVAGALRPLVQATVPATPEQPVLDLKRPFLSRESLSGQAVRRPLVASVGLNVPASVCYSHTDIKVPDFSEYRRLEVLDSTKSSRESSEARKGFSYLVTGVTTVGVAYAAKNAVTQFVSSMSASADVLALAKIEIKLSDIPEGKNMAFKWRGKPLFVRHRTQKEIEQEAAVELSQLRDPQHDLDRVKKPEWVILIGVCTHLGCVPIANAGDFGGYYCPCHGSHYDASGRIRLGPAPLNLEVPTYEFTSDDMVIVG
UniProt Q9UMX0, whole entry, looked up: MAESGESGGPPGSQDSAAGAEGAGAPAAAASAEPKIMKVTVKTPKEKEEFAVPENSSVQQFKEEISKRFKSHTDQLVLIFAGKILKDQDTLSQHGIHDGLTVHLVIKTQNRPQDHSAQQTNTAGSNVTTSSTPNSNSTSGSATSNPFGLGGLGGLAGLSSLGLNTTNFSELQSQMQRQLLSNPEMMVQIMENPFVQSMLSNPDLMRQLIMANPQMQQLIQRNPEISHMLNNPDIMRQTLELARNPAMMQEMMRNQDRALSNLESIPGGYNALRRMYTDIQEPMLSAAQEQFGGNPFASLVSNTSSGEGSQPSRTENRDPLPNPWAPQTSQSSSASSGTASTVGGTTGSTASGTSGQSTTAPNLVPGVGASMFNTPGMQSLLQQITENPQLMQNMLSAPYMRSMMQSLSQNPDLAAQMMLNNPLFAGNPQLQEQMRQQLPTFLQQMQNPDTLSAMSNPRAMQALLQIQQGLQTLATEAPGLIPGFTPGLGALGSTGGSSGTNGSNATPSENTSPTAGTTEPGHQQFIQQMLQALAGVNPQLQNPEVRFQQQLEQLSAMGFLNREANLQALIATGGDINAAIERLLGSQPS
UniProt Q9BVJ6: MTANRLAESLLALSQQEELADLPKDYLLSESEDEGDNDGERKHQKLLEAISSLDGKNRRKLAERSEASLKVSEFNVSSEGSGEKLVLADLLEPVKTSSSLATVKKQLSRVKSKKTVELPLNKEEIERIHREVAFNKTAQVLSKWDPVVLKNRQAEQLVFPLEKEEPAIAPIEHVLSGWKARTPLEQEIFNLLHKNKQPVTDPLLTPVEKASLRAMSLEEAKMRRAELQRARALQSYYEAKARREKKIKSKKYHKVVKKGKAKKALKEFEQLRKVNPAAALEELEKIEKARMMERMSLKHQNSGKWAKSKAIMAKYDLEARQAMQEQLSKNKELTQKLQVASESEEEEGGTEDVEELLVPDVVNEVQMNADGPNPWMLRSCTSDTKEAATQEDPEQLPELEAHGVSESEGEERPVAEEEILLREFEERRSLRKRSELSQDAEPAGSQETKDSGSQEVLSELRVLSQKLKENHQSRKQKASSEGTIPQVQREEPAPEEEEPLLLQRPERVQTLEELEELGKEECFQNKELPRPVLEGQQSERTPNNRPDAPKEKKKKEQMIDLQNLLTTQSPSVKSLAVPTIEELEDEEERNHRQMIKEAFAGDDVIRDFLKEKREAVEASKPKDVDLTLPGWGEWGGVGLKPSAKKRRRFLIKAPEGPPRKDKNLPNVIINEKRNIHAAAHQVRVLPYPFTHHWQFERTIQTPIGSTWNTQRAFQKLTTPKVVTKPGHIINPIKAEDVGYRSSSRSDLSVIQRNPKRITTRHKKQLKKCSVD
UniProt O94888: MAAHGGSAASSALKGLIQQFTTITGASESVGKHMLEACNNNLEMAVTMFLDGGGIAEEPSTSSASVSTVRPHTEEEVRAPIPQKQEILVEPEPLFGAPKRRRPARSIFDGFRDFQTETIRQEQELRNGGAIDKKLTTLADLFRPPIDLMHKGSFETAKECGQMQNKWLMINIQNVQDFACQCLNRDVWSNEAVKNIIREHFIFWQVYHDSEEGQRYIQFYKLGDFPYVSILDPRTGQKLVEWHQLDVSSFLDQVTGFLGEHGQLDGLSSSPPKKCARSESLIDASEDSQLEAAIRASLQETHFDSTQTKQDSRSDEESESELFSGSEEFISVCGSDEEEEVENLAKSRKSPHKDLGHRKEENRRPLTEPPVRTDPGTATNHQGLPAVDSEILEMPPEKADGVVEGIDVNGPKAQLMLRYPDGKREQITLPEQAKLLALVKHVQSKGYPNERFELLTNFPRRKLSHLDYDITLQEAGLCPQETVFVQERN
UniProt O75379: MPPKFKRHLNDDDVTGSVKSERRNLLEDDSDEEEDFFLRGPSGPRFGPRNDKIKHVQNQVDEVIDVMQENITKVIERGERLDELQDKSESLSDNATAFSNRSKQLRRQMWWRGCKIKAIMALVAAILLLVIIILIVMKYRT
UniProt Q9P0L0: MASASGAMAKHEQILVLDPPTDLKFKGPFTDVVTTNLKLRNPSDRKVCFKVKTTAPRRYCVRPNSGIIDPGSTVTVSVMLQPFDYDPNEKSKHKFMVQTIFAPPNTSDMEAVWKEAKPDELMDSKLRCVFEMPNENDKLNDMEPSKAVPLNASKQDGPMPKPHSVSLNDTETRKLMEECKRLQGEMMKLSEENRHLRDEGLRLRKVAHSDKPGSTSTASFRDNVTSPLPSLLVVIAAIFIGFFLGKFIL
UniProt Q9NWZ5: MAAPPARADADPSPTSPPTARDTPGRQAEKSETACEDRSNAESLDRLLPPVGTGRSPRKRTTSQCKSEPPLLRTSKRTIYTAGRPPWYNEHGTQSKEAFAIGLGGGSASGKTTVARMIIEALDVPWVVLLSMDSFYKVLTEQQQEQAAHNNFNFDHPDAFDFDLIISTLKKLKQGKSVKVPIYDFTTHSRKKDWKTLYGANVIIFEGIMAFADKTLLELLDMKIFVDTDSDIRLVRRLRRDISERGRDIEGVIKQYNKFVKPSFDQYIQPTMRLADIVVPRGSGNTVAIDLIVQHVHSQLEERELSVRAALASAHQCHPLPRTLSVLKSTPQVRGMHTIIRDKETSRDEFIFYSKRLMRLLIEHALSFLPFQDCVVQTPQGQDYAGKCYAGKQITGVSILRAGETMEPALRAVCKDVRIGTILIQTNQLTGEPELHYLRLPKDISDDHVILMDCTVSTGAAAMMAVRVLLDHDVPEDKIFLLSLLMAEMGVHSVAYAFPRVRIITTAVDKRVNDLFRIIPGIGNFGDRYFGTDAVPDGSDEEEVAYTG
UniProt Q9BRT2: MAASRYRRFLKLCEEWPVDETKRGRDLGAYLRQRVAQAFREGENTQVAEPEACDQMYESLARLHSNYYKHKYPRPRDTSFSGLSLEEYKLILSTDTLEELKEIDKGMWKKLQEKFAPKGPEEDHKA
UniProt P07919: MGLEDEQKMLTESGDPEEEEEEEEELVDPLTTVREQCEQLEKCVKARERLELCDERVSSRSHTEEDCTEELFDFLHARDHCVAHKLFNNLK
UniProt P10746: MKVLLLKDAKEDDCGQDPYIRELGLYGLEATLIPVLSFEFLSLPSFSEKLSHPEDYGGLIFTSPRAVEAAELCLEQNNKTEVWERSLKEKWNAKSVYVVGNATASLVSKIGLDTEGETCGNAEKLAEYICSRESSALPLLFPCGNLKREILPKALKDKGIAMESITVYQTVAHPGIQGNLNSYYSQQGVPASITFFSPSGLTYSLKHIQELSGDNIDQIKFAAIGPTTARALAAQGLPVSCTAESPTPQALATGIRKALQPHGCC
UniProt P15374: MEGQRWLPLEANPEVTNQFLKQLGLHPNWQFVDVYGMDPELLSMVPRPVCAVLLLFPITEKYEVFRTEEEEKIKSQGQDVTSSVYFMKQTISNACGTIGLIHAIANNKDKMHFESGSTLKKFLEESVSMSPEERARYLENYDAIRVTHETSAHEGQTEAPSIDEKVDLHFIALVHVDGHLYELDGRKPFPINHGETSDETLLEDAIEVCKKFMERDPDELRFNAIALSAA
UniProt Q92890: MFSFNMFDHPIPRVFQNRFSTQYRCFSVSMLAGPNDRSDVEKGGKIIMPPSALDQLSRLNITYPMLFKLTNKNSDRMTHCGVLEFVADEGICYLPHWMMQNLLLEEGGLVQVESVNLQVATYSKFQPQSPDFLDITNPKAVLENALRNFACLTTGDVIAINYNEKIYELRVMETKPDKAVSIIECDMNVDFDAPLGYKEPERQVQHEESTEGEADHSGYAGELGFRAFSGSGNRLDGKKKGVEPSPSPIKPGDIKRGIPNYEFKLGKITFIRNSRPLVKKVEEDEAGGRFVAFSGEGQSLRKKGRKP
UniProt P06132: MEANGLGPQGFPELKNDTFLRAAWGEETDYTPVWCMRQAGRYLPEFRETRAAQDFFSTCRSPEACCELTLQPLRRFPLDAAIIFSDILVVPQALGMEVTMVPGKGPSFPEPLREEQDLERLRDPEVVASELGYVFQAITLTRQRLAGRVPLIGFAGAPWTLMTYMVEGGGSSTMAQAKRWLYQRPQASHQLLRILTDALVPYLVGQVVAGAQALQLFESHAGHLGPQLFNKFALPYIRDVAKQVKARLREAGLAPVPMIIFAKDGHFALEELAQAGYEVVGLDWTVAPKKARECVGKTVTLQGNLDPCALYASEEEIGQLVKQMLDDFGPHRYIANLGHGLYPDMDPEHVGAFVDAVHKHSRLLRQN
UniProt P54578: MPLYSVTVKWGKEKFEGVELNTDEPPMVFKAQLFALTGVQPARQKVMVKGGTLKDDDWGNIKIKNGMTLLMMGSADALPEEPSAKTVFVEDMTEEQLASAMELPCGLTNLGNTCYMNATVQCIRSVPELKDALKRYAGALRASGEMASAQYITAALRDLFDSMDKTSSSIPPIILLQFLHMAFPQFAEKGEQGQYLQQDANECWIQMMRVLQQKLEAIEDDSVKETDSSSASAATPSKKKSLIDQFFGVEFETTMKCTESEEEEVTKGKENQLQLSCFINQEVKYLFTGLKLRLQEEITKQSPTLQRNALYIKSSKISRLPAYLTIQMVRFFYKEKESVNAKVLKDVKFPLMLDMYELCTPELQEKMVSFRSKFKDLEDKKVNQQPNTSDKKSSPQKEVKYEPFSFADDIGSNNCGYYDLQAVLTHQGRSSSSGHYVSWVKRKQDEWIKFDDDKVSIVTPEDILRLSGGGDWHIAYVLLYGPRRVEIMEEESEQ

This is one part of the list.

Compound in the test: c1cc(OCCN2CCCCC2)cc(-c2n[nH]c3ccc(-c4nnc[nH]4)cc23)c1
Briefly: log2 fold change, soluble protein after heating vs DMSO (PISA); higher = thermal stabilisation; K562 cells, 10 uM, 30 min; active = over 0.2 and 3.5 SD of the protein, either way, in both replicates (recomputed). The method in brief: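 For each measurement, 10 μM compound was applied for 30 min to K562 cells at 2×10^6 cells/mL. Aliquots were heated for 3 min across 48°C-58°C, pooled, and extracted in PBS with 0.5% NP-40 at 4°C; the supernatant after 21,000xg for 90 min was soluble protein. This was quantified by TMTpro 16plex LC-MS/MS with channel sums equalised, and thermal stability was reported relative to control samples from duplicates, on a log2 fold-change scale.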
Take USE1 (UniProt Q9NZ43): the log2 fold change is inactive: -0.013.

In the case of URI1 (UniProt O94763), the log2 fold change was inactive: -0.129.

Turning to UMPS (UniProt P11172), the log2 fold change was inactive: 0.007.

As for UTP3 (UniProt Q9NQZ2), the log2 fold change was inactive: -0.41.

With UIMC1 (UniProt Q96RL1), the log2 fold change was inactive: -0.172.

For the target USP8 (UniProt P40818), the log2 fold change is inactive: -0.034.

With UGGT2 (UniProt Q9NYU1), the log2 fold change is inactive: -0.23.

In the case of UBR4 isoform 2 (UniProt Q5T4S7), the log2 fold change is inactive: -0.076.

In the case of UBE3C (UniProt Q15386), the log2 fold change was inactive: -0.065.

In the case of UQCRFS1 (UniProt P47985), the log2 fold change is inactive: 0.087.

As to UBQLN1 (UniProt Q9UMX0), the log2 fold change is inactive: -0.03.

For UTP14A (UniProt Q9BVJ6), the log2 fold change was inactive: -0.092.

As to UBXN7 (UniProt O94888), the log2 fold change is inactive: 0.131.

On to VAMP4 (UniProt O75379), for which the log2 fold change was inactive: -0.021.

Turning to VAPA (UniProt Q9P0L0), the log2 fold change is inactive: -0.007.

Regarding VARS (UniProt P26640), the log2 fold change was inactive: -0.038.

Consider UCKL1 (UniProt Q9NWZ5), for which the log2 fold change is inactive: -0.14.

With USP48 isoform 8 (UniProt Q86UV5), the log2 fold change is inactive: -0.157.

Turning to VCL (UniProt P18206), the log2 fold change was inactive: 0.011.

As to UGGT1 (UniProt Q9NYU2), the log2 fold change was inactive: -0.035.

Consider UQCC2 (UniProt Q9BRT2), for which the log2 fold change is inactive: -0.024.

As to UBR7 (UniProt Q8N806), the log2 fold change is inactive: -0.025.

On to USP5 (UniProt P45974), for which the log2 fold change was inactive: -0.031.

Consider UQCRH (UniProt P07919), for which the log2 fold change was inactive: 0.093.

For USP10 isoform 2 (UniProt Q14694), the log2 fold change is inactive: -0.06.

UROS (UniProt P10746): the log2 fold change was inactive: -0.003.

Regarding UCHL3 (UniProt P15374), the log2 fold change is inactive: -0.029.

In the case of UFD1 isoform 1 (UniProt Q92890), the log2 fold change is inactive: 0.034.

Turning to VARS2, A0A0G2JL52, the log2 fold change was inactive: -0.017.

Consider VAPA isoform 2 (UniProt Q9P0L0), for which the log2 fold change is inactive: -0.001.

UQCRC2 (UniProt P22695): the log2 fold change was inactive: 0.009.

On to USP15 (UniProt Q9Y4E8), for which the log2 fold change was inactive: -0.022.

Take UBE4B isoform 4 (UniProt O95155): the log2 fold change was inactive: -0.014.

Turning to UGT8 (UniProt Q16880), the log2 fold change was inactive: -0.141.

With UROD (UniProt P06132), the log2 fold change was inactive: -0.006.

For UEVLD (UniProt Q8IX04), the log2 fold change was inactive: -0.095.

As to USP9X (UniProt Q93008), the log2 fold change was inactive: -0.056.

USP14 (UniProt P54578): the log2 fold change is inactive: 0.005.

Turning to VASP (UniProt P50552), the log2 fold change was inactive: -0.068.
